At least one read-out could not be matched to a standard name with certainty.
Assay: Ocular, retinal delivery of GGA by eye drop compared to systemic (PO) delivery, AUC (Example 21)
Assay type: in vivo
Conditions: eye drop vs systemic delivery

CC(=O)CC/C=C(\C)CC/C=C(\C)CC/C=C(\C)CCC=C(C)C [CNS-102, (5E, 9E, 13E) geranylgeranyl acetone]
relative retinal bioavailability compared to a mixture of cis and trans GGA: enhanced

— patent US20130245126A1, “GERANYLGERANYLACETONE FORMULATIONS AND RETINAL DELIVERY THEREOF” (COYOTE PHARMACEUTICALS, INC., priority 2012, published 2013)
